# In the supplement of paper PMC12889115:
# This is one part of the list. Values are raw readings; no control value is given beside them.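 In the initial screen, polymyxin B was used at a concentration that permeabilizes Salmonella's outer membrane but not its inner membrane. Maximum growth was set by DMSO wells with or without polymyxin B. Since plates varied, data were ranked per plate, and compounds giving the lowest OD600 advanced as hits.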
# Test system: Salmonella enterica serovar Typhimurium SL1344
# Assay: bacterial growth OD600 after 18 h with compound and polymyxin B; higher = more bacterial growth (less inhibition)
# Details: 50 µM, Mueller-Hinton broth
smiles,measurement,setting,value
CCOc1ccc2nc(N3CCC(C(=O)N4CCN(C5CCCCC5)CC4)CC3)nc(C)c2c1,bacterial growth OD600,polymyxin B 0.75 µg/mL,0.044
O=C(Nc1ccc(-c2cscn2)cc1)C1CCCN(Cc2cccc(O)c2)C1 (stereo not given),bacterial growth OD600,polymyxin B 0.75 µg/mL,0.693
O=C(CCC1CCN(C(=O)CSc2ccccc2)CC1)NCC1CCCO1 (stereo not given),bacterial growth OD600,polymyxin B 1 µg/mL,0.759
O=C(CCC1CCN(C(=O)C2CC(=O)N(C3CC3)C2)CC1)Nc1ccc2c(c1)OCCO2 (stereo not given),bacterial growth OD600,polymyxin B 1 µg/mL,0.923
O=C1CC(CC(=O)N2CCCCC2c2nccs2)(c2cccc(F)c2)C(=O)N1Cc1cccnc1 (stereo not given),bacterial growth OD600,polymyxin B 0.75 µg/mL,0.941
COc1ccc(CC2(CCC(=O)NCc3nccs3)CCC(=O)N2)c2ccccc12 (stereo not given),bacterial growth OD600,polymyxin B 0.75 µg/mL,0.822
CC(Cc1cccnc1)NC(=O)c1cc(COc2ccc(F)cc2F)on1 (stereo not given),bacterial growth OD600,polymyxin B 1 µg/mL,0.89
CCCCNCc1ccccc1OCC(O)CN1CCc2ccccc2C1 (stereo not given),bacterial growth OD600,polymyxin B 0.75 µg/mL,0.79
COC(CNc1nc2nonc2nc1N1CCOCC1)c1cccs1 (stereo not given),bacterial growth OD600,polymyxin B 1 µg/mL,0.935
Cc1cccnc1-c1cccc2c1OC(CNC(=O)CC1CC1)C2 (stereo not given),bacterial growth OD600,polymyxin B 0.75 µg/mL,0.839
Cn1c(CNc2nncc(-c3cccc(Cl)c3)n2)nc2ccccc21,bacterial growth OD600,polymyxin B 0.75 µg/mL,0.006
COc1ccccc1OCC(=O)N1CCc2c(cnc(C)c2CNC(=O)Cc2ccsc2)C1,bacterial growth OD600,polymyxin B 0.75 µg/mL,0.945
COc1cc(CN2CCN(Cc3cccc4nonc34)CC2CCO)cc(OC)c1 (stereo not given),bacterial growth OD600,polymyxin B 1 µg/mL,0.97
CCc1ccc(CN(C)C(=O)C2CCC(=O)N(Cc3cccc(OC)c3)C2)nc1 (stereo not given),bacterial growth OD600,polymyxin B 1 µg/mL,0.815
COc1ccc(CNC2CCCc3c2cnn3-c2ccccn2)c(C)c1C (stereo not given),bacterial growth OD600,polymyxin B 0.75 µg/mL,0.758
CCC(COC)NC(=O)c1sc2ncnc(N3CCCCCCC3)c2c1C (stereo not given),bacterial growth OD600,polymyxin B 0.75 µg/mL,0.759
CCCc1ncc(CN2CCC(C3CCN(c4ncccn4)CC3)C2)cn1 (stereo not given),bacterial growth OD600,polymyxin B 0.75 µg/mL,0.792
COc1ccc(F)c(CN2CCCC3(CCN(c4cc(OC)ncn4)C3)C2=O)c1 (stereo not given),bacterial growth OD600,polymyxin B 1 µg/mL,0.885
COc1ccc(C(CC(=O)N(C)Cc2cn(C)nc2C)c2ccccc2)cc1 (stereo not given),bacterial growth OD600,polymyxin B 1 µg/mL,0.787
CCOc1cc(CN2CCN(Cc3ccc(OC)c(C)c3C)C(CCO)C2)ccc1O (stereo not given),bacterial growth OD600,polymyxin B 1 µg/mL,0.951

# Ordered by molecular weight (falling): some entries from above.
smiles,measurement,setting,value
COc1ccc(CC2(CCC(=O)NCc3nccs3)CCC(=O)N2)c2ccccc12 (stereo not given),bacterial growth OD600,polymyxin B 0.75 µg/mL,0.822
COc1ccc(C(CC(=O)N(C)Cc2cn(C)nc2C)c2ccccc2)cc1 (stereo not given),bacterial growth OD600,polymyxin B 1 µg/mL,0.787
COc1ccc(CNC2CCCc3c2cnn3-c2ccccn2)c(C)c1C (stereo not given),bacterial growth OD600,polymyxin B 0.75 µg/mL,0.758
